The source of these data is the supplement of paper PMC10735217.

The experiment has as its system HEK293A TEAD-LUC reporter. As to the kind of experiment: TEAD-luciferase reporter activity (YAP activation), robust Z score vs plate; higher = stronger YAP/TEAD activation. As to conditions: 24 h. (In general: In a reporter assay the amount or activity of a reporter protein is the signal.)

This is one part of the list. This data set is noisy: repeats of one test often differ as much as different tests do.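 The human kidney-derived cells carry a stably integrated construct of eight TEAD-binding elements driving luciferase, read by luminescence in a drug-repurposing library screen. A compound counts as a hit when its signal is more than five robust Z scores above the plate mean.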

In the case of `Cc1nc2cnccc2n1-c1ccc(OCc2cccc(C=Cc3ccc4ccc(Cl)cc4n3)c2)cc1`, the TEAD-luciferase reporter activity is inactive: -1.22 (compound concentration: 200 nM), inactive: -0.292 (compound concentration: 2 uM) and inactive: 1.73 (compound concentration: 10 uM).
In the same order, the values of `CC1(C)OCCn2c1nc1c(N3CCOCC3)nc(-c3cnc(N)nc3)nc12` are inactive: -1.35, inactive: -0.723 and inactive: -0.703.
Turning to `CC[C@@H](Nc1c(Nc2cccc(C(=O)N(C)C)c2O)c(=O)c1=O)c1ccc(C)o1`, the TEAD-luciferase reporter activity (compound concentration: 2 uM) was inactive: -0.929.
With `CC[C@@H](Nc1c(Nc2cccc(C(=O)N(C)C)c2O)c(=O)c1=O)c1ccc(C)o1` [Navarixin], the TEAD-luciferase reporter activity reads like this: (compound concentration: 200 nM) inactive: 0.179; (compound concentration: 2 uM) inactive: -0.207; (compound concentration: 10 uM) inactive: 1.66.
For `O=C(O)C1CCCN1C(=O)C12CC3CC(CC(C3)C1)C2` (stereo not drawn) [1-(1-adamantylcarbonyl)proline], in that order: inactive: -1.34, inactive: -0.217 and inactive: -1.58.
In the same order, the values of `CC(C)Oc1ccc2c(=O)c3cc(C(=O)O)ccc3oc2c1` are inactive: 0.96, inactive: 0.546 and inactive: 1.55.
Turning to `Oc1ncc(/N=C/c2cc(Cl)cc(Cl)c2O)c(O)n1`, the TEAD-luciferase reporter activity was inactive: -0.4 (compound concentration: 200 nM), inactive: -0.737 (compound concentration: 2 uM) and inactive: 2.16 (compound concentration: 10 uM).
In the same order, the values of `O=C(O)c1ccc(NS(=O)(=O)c2ccccc2)cc1O` are inactive: -0.785, inactive: -2.14 and inactive: -2.05.
As to `Cc1cc(Br)c(O)c2ncccc12`, the TEAD-luciferase reporter activity (compound concentration: 200 nM) is inactive: 0.0499, the TEAD-luciferase reporter activity (compound concentration: 2 uM) is inactive: 0.772 and the TEAD-luciferase reporter activity (compound concentration: 10 uM) was inactive: 0.588.
Regarding `CCCC(=O)c1cc(F)ccc1OCC(O)CNC(C)(C)C` (stereo not drawn) [butofilolol], the TEAD-luciferase reporter activity reads like this: (compound concentration: 200 nM) inactive: -1.15; (compound concentration: 2 uM) inactive: -0.366; (compound concentration: 10 uM) inactive: -0.323.
For `CC1=C\C(O)CC(=O)Cc2nc(co2)C(=O)NC(C)C(=O)OC(C(C)C)C(C)/C=C/C(=O)NC\C=C\1` (stereo not drawn), in that order: inactive: -0.448, inactive: -2.18 and inactive: -0.245.
With `COc1ccc(C(=O)NC2CCCN(Cc3ccc(-c4cccc(OC)c4)cc3)C2)cc1` (stereo not drawn), the TEAD-luciferase reporter activity reads like this: (compound concentration: 200 nM) inactive: -0.184; (compound concentration: 10 uM) inactive: -0.433.
As to `CCCCOc1ccc(C(=O)NC(=S)Nc2cccc(C(F)(F)F)c2)cc1`, the TEAD-luciferase reporter activity (compound concentration: 200 nM) was inactive: -1.06, the TEAD-luciferase reporter activity (compound concentration: 2 uM) was inactive: -0.783 and the TEAD-luciferase reporter activity (compound concentration: 10 uM) was inactive: 0.341.
For `CCCCCCCCCC(=O)OCCN1CCN(CCCN2c3ccccc3Sc3ccc(C(F)(F)F)cc32)CC1` [Fluphenazine decanoate], in that order: inactive: -1.03, inactive: -2.51 and inactive: -0.653.
As for `CC(=O)N1CCC2(CC1)CN(C(C)=O)Cc1ccccc1O2`, the TEAD-luciferase reporter activity runs as follows: (compound concentration: 200 nM) inactive: -1.3; (compound concentration: 10 uM) inactive: 0.288.
On to `Cc1ncc([N+](=O)[O-])n1CC(C)O` (stereo not drawn) [1-(2-Methyl-5-nitro-imidazol-1-yl)-propan-2-ol], for which the TEAD-luciferase reporter activity runs as follows: (compound concentration: 200 nM) inactive: -0.797; (compound concentration: 10 uM) inactive: 0.594.
On to `Cc1ncc([N+](=O)[O-])n1CC(C)O` (stereo not drawn) [secnidazole], for which the TEAD-luciferase reporter activity (compound concentration: 2 uM) is inactive: -0.497.
In the case of `O=S(=O)(N[C@H](CO)C(C(F)(F)F)C(F)(F)F)c1ccc(Cl)s1` [Begacestat], the TEAD-luciferase reporter activity was inactive: -0.874 (compound concentration: 200 nM), inactive: -0.218 (compound concentration: 2 uM) and inactive: 0.521 (compound concentration: 10 uM).
For `O=C1CCC(c2ccc(NC(=O)CCN3CCC(c4ccccc4)CC3)cc2)=NN1` [Altapizone], in that order: inactive: -0.928, inactive: 0.789 and inactive: -1.07.
Consider `CC[C@H](C)[C@H](NC(=O)[C@H](Cc1ccccc1)NC(=O)[C@H](C)NC(=O)[C@H](CC(=O)O)NC(=O)[C@H](CCCCN)NC(=O)[C@H](CO)NC(=O)[C@@H]1CCCN1C(=O)[C@@H]1CCC(=O)N1)C(=O)NCC(=O)N[C@@H](CC(C)C)C(=O)N[C@@H](CCSC)C(N)=O` [Eledoisin], for which the TEAD-luciferase reporter activity runs as follows: (compound concentration: 200 nM) inactive: 0.538; (compound concentration: 10 uM) inactive: 0.358.
As to `O[C@@](Cn1cnnn1)(c1ccc(F)cc1F)C(F)(F)c1ccc(-c2ccc(OCC(F)(F)F)cc2)cn1`, the TEAD-luciferase reporter activity is inactive: 1.02 (compound concentration: 200 nM), inactive: 0.13 (compound concentration: 2 uM) and inactive: 0.907 (compound concentration: 10 uM).
For `CC(C)Cc1ccc(CC(=O)O)cc1`, in that order: inactive: -0.974, inactive: -0.0976 and inactive: -1.61.
For `CCCn1c(=O)c2[nH]c(C34CCC(CCC(=O)O)(CC3)CC4)nc2n(CCC)c1=O`, the TEAD-luciferase reporter activity by setting is: (compound concentration: 200 nM) inactive: -0.608; (compound concentration: 2 uM) inactive: -0.609; (compound concentration: 10 uM) inactive: -0.759.
In the same order, the values of `CCOc1ccc(OCC(=O)C2CCCC2)cc1` are inactive: 4.99, active: 5.13 and active: 6.35.
As for `COC1=CC(=O)OC1C(O)c1ccc(Cl)cc1Cl` (stereo not drawn), the TEAD-luciferase reporter activity by setting is: (compound concentration: 200 nM) inactive: 0.989; (compound concentration: 2 uM) inactive: -0.949; (compound concentration: 10 uM) inactive: -0.895.
In the same order, the values of `Cc1cc(=O)oc2cc(O)ccc12` are inactive: -0.108, inactive: -0.26 and inactive: -0.449.
`COc1ccc(CN2CCN(CC(=O)O)CC2)c(OC)c1OC`: the TEAD-luciferase reporter activity by setting is: (compound concentration: 200 nM) inactive: -2.4; (compound concentration: 2 uM) inactive: -0.673; (compound concentration: 10 uM) inactive: 1.44.
